No constants are given. Whether binding was seen depends on the method and setting. In cells and extracts the contact can be indirect. Here binding means that the protein was enriched with, or labelled near, the bait; the list need not be complete. Where a sequence is shown, tags or fusion partners need not be part of it.

The test addresses T1, GFP-tagged ThrRS (THS1, YIL078W), yeast cytosolic threonine tRNA synthetase (S. cerevisiae) (UniProt P04801).
T1 sequence: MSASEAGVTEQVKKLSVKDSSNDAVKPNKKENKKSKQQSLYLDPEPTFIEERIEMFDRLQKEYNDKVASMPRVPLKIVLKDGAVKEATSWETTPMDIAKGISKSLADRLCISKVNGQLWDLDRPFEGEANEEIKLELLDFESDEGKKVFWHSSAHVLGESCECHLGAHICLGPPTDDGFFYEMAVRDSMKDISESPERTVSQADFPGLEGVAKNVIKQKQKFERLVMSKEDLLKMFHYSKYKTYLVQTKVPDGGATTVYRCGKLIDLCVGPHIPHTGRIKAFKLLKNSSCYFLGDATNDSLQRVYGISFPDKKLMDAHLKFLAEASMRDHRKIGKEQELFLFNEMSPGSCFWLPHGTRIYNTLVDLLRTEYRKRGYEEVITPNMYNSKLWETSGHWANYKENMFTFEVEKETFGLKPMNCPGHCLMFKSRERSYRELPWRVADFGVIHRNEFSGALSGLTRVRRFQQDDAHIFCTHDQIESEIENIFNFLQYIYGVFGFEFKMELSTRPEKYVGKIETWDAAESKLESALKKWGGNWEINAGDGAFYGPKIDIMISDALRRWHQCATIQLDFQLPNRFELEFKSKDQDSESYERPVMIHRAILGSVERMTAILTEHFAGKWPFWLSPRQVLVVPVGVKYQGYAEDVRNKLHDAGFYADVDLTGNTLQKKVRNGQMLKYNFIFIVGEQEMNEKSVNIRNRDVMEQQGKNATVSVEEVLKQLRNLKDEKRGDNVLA
The test is described as follows: affinity purification with mass spectrometry; ThrRS-GFP strain and untagged control cross-linked with 1% formaldehyde for 10 min; lysate on GFP-Trap_MB, 4 °C, 2 h; washes with 0.5 M NaCl, 0.5% NP40; elution with 0.2 M glycine pH 2.5; LC-MS/MS, label-free quantitation against the untagged control, two biological repeats.

B1: ACB1 (protein, UniProt P31787 1-87)
chain: MVSQLFEEKAKAVNELPTKPSTDELLELYALYKQATVGDNDKEKPGIFNMKDRYKWEAWENLKGKSQEDAEKEYIALVDQLIAKYSS
For B1, the binding result was “binds”.

B2: CYS3, an enzyme involved in cysteine biosynthesis (enzyme, UniProt P31373 1-394)
chain: MTLQESDKFATKAIHAGEHVDVHGSVIEPISLSTTFKQSSPANPIGTYEYSRSQNPNRENLERAVAALENAQYGLAFSSGSATTATILQSLPQGSHAVSIGDVYGGTHRYFTKVANAHGVETSFTNDLLNDLPQLIKENTKLVWIETPTNPTLKVTDIQKVADLIKKHAAGQDVILVVDNTFLSPYISNPLNFGADIVVHSATKYINGHSDVVLGVLATNNKPLYERLQFLQNAIGAIPSPFDAWLTHRGLKTLHLRVRQAALSANKIAEFLAADKENVVAVNYPGLKTHPNYDVVLKQHRDALGGGMISFRIKGGAEAASKFASSTRLFTLAESLGGIESLLEVPAVMTHGGIPKEAREASGVFDDLVRISVGIEDTDDLLEDIKQALKQATN
Regarding B2, the binding result is reported as “binds”.

These data come from paper PMC9956033.
